Results are given in words; binding and its absence hold for the method and conditions named. In cells and extracts the contact can be indirect. A yes stands for co-enrichment or nearness to the bait. Other partners may have been found. For some of these results: Where a sequence is shown, tags or fusion partners need not be part of it.
T1: hTim10b^3XFLAG (human) (UniProt Q9Y5J6)
T1 sequence: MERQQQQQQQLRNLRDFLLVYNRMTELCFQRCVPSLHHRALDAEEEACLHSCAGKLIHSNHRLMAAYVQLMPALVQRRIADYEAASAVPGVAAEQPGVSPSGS

Amino acid sequences for entries named in this document (tags omitted). A change or cut given only in a name is not applied to a line headed by its entry.
UniProt Q9BSF4: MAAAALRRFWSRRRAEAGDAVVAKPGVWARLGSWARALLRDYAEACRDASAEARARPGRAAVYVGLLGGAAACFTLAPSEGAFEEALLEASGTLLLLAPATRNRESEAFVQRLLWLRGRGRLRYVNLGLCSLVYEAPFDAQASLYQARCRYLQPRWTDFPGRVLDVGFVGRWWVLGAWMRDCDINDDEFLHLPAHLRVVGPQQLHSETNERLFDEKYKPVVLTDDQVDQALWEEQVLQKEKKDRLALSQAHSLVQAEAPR

B1: hTim22 (protein, UniProt Q9Y584 1-194)
chain: MAAAAPNAGGSAPETAGSAEAPLQYSLLLQYLVGDKRQPRLLEPGSLGGIPSPAKSEEQKMIEKAMESCAFKAALACVGGFVLGGAFGVFTAGIDTNVGFDPKDPYRTPTAKEVLKDMGQRGMSYAKNFAIVGAMFSCTECLIESYRGTSDWKNSVISGCITGGAIGFRAGLKAGAIGCGGFAAFSAAIDYYLR
B2: hTim9 (protein, UniProt Q9Y5J7 1-89)
chain: MAAQIPESDQIKQFKEFLGTYNKLTETCFLDCVKDFTTREVKPEETTCSEHCLQKYLKMTQRISMRFQEYHIQQNEALAAKAGLLGQPR
B3: hTim10b (protein, UniProt Q9Y5J6 1-103)
chain: T1 sequence
B4: hTim10a (protein, UniProt P62072 1-90)
chain: MDPLRAQQLAAELEVEMMADMYNRMTSACHRKCVPPHYKEAELSKGESVCLDRCVSKYLDIHERMGKKLTELSMQDEELMKRVQQSSGPA

target: Tim29^3XFLAG (human) (UniProt Q9BSF4); assay: affinity purification with mass spectrometry; 5 mg mitochondria of FLAG-tagged protein expressing or empty-vector cells solubilised in digitonin-containing buffer, diluted to 0.1% digitonin, anti-FLAG agarose 60 min 4°C, glycine pH 2.5 elution, label-free quantitative LC-MS/MS

Row | binding | Binder
1 | binds | B1
2 | binds | B2
3 | binds | B3
4 | binds | B4

target: T1, hTim10b^3XFLAG (human); assay: as above

Row | binding | Binder
5 | binds | B1
6 | binds | B2
7 | binds | B4

Reference: article PMC5016092
